For some assays here: At least one structure is not confirmed: it was looked up by name or label, or the drawing left a doubt. Some entries share one result that the patent states for a list of compounds.
Tests used:
[1] = Aerobic soil degradation of cyantraniliprole in loam soil; format: physicochemical; conditions: 25° C.
Experimental: Loam soil had 29% sand, 50% silt, and 21% clay with 2.9% organic matter and a pH of 5.7. […] Soil (20.0 to 50 g) was weighed into individual glass containers and moisture was adjusted to field moisture capacity at approximately 27% by weight by adding de-ionized water to the containers. Afterward, the containers were covered with breathable tape and pre-incubated inside a temperature-controlled incubator at 25° C. for 6 days. The tape allowed free oxygen exchange between the container headspace and ambient air while minimizing soil water loss due to evaporation. […] The incubator temperature was monitored by a digital thermometer and Hobo data logger, and soil water loss was monitored by weighing each sample container during the experiment. […] Soil moisture content was brought back to field capacity once every 1-2 weeks by adding de-ionized water equivalent to the amount of moisture that was lost, monitored by weighing each container every week.
At sampling intervals of 0, 3, 7, 14, 28, 56 and 90 days, three containers from each treatment were removed from the incubator, and the 5 cyantraniliprole-containing particles were collected and transferred to 100 mL polypropylene bottles for extraction. […] Cyantraniliprole was separated by HPLC and quantified by UV detection at 220 nm using an external calibration curve of an analytical standard.

[2] = cited from earlier work

| Compound | half-life of biodegradation by soil microbes [1] [h] | Log Kow [2] |
| --- | --- | --- |
| CNC(=O)c1cc(C#N)cc(C)c1NC(=O)c1cc(Br)nn1-c1ncccc1Cl [Control E, Cyantraniliprole] | 240 to 312 | – |
| CO/C=C(/C(=O)OC)c1ccccc1COc1cccc(C(F)(F)F)n1 [Picoxystrobin] | – | 3.6 |

— US11864555B2, “Soil application of crop protection agents” (PIONEER HI-BRED INTERNATIONAL, INC., priority 2017, dated 2024)
